According to patent US20150232562A1 (Ablynx, published 2015):
Changes are numbered by the printed parent chain. No constants are given. Whether binding was seen depends on the method and setting. Some entries that bind do so weakly or less than the wild type.

B1: 15G8 (VHH)
VHH: EVQLVESGGGLVQPGGSLKLSCVASGFSLDDYGMTWVRQAPGKGLEWVSSINWNGTHTDYAYSVKGRFTISRDNAKNTLFLQMNSLTPENTAVYYCNQGWKILPAERRGHGTQVTVSS
notes: C-term myc-His6 tag
B2: 17H4 (VHH)
VHH: EVQLVESGGGLVQPGGSLRLSCVASGFSLINYAMTWVRQAPGKGLEWVSSINWSGTHTDYADSVKGRFTISRDNAKNTLFLHMNNLSPEDTAVYYCGQGWKIHPADRGGHGTQVTVSS
notes: C-term myc-His6 tag
B3: 38C6 (VHH)
VHH: EVQLVESGGGLVQPGGSLRLSCVGSGFSLDDYAMTWVRQAPGKGLEWVSSINWSGTHTDYADSVKGRFTISRDNAKNTLFLQMNSLSPEDTAVYYCNQGWKIRPTIPMGHGTQVTVSS
notes: C-term myc-His6 tag
B4: 5G4 (VHH)
VHH: EVQLVESGGGLVQPGGSLTLSCAGSGFIFDDYAMSWVRQAPGKGLEWVSSINWSGSHRNYADSVKGRFTISRDNAKKTLYLQMNSLKSEDTAVYYCATGWQSTTKNQNYWGQGTQVTVSS
notes: C-term myc-His6 tag
B5: 15B7 (VHH)
VHH: B4 VHH with T19K, G24A, S50A, L79V, K87Q, A97G, N106S, N108G
notes: C-term myc-His6 tag
B6: 15G7 (VHH)
VHH: B4 VHH with T19R, G24A, S50A, S56T, A75N, L79V, N108G
notes: C-term myc-His6 tag
B7: 2A5 (VHH)
VHH: EVQLVESGGGLVQPGGSLRLSCATSGFTFDDYAMTWVRQAPGKGLEWVSSINWSGTHTDYTDSVKGRFTISRNNANNTLYLQMNSLKSEDTAVYYCAKNWGDAGTTWFEKSGSAGQGTQVTVSS
notes: C-term myc-His6 tag
B8: 2F3 (VHH)
VHH: B7 VHH with G10S, T24A, D62G, E89D, Q116P
notes: C-term myc-His6 tag
B9: 17D8 (VHH)
VHH: B7 VHH with G10S, Q13P, T24V, T35S, T78M, G101R
notes: C-term myc-His6 tag
B10: 17E7 (VHH)
VHH: B7 VHH with G10S, T24A, T35S, A40V, T61A, G101R
notes: C-term myc-His6 tag
B11: 17E10 (VHH)
VHH: B7 VHH with G10S, T24A, Y60C
notes: C-term myc-His6 tag
B12: 17D11 (VHH)
VHH: EVQLVESGGGLVQAGGSLRLSCTASGRTSSTSAMGWFRQAPGKEREFVATISRGGSATYYADSLKGRFTISRDNAKNTLYLQMNSLKPEDTAVYYCAARRSSLYTSSNVFEYDYWGQGTQVTVSS
B13: 15E11 (VHH)
VHH: EVQLVESGGGLVQAGGSLRLSCVASRIPFSSRTMAWYRQAPGKQRDWVATISARGMPAYEDSVKGRFTVSRDNDKNTLYLQMNSLKPEDTAVYYCRDVNADYWGQGTQVTVSS
B14: 15E12 (VHH)
VHH: EVQLMESGGGLVQAGGSLRLSCAANGLTFRRYDMGWYRQAPGQQREWVAAISGAGDINYADSVKGRFTMARDNANHTVHLQMNSLKPEDTAVYYCNANWKMLLGVENDYWGQGTQVTVSS

Target: T1, recombinant human ErbB2/Fc chimera (human, UniProt P04626 23-652)
T1 construct: bought from R&D Systems; also called rhErbB2-Fc; rhErb2-Fc; Fc part of the bought chimera not given; not described
Experiment: ELISA, coated ErbB2/Fc

binding | Binder
binds | B1
binds | B2
binds | B3
binds | B4
binds | B5
binds | B6
binds | B7
binds | B8
binds | B9
binds | B10
binds | B11
binds | B12
binds | B13
binds | B14
